Test results taken from article doi:10.1101/024844.
Results are given in words; binding and its absence hold for the method and conditions named. In cells and extracts the contact can be indirect. Some binding calls cover weakened binding; strength is not graded here.

The chains behind the UniProt entries cited, without tags or fusion partners.
UniProt Q96EB6: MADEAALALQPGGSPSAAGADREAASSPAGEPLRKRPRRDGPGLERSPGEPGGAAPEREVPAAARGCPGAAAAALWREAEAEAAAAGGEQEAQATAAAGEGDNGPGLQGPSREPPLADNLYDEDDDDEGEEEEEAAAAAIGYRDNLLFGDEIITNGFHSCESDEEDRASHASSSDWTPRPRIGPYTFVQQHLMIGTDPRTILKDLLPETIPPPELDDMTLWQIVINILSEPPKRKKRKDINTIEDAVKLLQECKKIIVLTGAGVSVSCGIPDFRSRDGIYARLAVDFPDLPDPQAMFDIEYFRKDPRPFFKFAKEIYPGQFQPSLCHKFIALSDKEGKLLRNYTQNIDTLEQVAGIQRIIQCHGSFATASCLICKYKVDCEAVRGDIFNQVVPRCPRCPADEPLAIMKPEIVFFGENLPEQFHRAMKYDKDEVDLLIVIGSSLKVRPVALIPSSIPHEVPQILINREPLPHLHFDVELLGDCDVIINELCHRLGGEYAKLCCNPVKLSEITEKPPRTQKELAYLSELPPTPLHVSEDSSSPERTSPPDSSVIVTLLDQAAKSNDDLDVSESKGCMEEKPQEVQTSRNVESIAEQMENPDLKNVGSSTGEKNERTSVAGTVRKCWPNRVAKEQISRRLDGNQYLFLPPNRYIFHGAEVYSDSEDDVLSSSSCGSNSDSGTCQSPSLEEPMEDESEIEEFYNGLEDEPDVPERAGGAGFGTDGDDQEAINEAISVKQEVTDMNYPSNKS
UniProt Q15022: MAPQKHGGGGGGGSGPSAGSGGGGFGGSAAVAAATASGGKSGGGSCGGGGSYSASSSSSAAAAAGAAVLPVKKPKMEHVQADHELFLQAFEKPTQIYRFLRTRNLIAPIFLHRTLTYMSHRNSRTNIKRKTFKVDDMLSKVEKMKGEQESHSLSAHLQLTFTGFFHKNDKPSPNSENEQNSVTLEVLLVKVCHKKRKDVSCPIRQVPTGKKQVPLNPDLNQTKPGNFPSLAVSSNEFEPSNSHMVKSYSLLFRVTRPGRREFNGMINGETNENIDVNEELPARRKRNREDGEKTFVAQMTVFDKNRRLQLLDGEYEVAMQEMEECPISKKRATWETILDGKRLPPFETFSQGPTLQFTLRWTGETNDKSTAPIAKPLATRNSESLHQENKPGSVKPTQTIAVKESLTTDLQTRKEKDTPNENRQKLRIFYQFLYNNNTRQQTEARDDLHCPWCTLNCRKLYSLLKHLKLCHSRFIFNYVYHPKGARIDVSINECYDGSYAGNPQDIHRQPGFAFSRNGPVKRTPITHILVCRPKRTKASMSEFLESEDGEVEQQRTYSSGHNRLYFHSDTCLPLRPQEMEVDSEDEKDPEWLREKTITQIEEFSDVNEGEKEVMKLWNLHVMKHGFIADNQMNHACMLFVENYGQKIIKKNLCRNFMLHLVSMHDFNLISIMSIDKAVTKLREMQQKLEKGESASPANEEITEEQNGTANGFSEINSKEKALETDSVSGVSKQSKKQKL

Biological target: SIRT1 (UniProt Q96EB6)
Test: co-IP

binding: binds
Substance: SUZ12 (PRC2 complex subunit) (from UniProt Q15022 1-739)
